These results are taken from patent US5589335A, “Hybridization promotion reagents” (Amoco Corporation, priority 1994, dated 1996).

The subject of this data set is DNA-RNA hybrid. Nature of the data set: RNA:DNA hybrid melting in TMA reagents.

On to `C[N+](C)(C)C` [TMA.SCN, Tetramethylammonium thiocyanate], for which the “melting temperature (Td) of DNA-RNA hybrid” value was “about 60 °C”.

With `C[N+](C)(C)C` [TMA.TCA, Tetramethyammonium:Trichloroacetate], the “melting curve width ΔT3/4 - 1/4” value (RNA:DNA hybrid) was “about 2 °C”.
